The source of these data is article doi:10.1101/785154.

The chains behind the UniProt entries cited, without tags or fusion partners. Where a name states a change or a piece, a line headed by the entry shows the natural chain unless it says otherwise.
UniProt P35241: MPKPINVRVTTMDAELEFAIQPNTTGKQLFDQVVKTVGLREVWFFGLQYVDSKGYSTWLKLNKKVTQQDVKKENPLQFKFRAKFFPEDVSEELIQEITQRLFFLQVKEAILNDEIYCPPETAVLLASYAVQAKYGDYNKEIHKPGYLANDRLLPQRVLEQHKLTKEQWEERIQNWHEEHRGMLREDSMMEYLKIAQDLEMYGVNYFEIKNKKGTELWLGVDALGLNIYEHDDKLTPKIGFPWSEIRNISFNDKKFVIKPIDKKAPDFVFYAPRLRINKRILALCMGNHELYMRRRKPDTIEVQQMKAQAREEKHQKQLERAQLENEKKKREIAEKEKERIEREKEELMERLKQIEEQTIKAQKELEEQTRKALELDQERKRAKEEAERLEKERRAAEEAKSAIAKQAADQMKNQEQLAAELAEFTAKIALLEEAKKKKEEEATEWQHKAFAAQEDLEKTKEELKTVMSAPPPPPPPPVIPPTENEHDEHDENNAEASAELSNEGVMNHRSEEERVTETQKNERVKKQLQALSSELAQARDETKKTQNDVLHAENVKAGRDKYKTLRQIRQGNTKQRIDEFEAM
UniProt P26043: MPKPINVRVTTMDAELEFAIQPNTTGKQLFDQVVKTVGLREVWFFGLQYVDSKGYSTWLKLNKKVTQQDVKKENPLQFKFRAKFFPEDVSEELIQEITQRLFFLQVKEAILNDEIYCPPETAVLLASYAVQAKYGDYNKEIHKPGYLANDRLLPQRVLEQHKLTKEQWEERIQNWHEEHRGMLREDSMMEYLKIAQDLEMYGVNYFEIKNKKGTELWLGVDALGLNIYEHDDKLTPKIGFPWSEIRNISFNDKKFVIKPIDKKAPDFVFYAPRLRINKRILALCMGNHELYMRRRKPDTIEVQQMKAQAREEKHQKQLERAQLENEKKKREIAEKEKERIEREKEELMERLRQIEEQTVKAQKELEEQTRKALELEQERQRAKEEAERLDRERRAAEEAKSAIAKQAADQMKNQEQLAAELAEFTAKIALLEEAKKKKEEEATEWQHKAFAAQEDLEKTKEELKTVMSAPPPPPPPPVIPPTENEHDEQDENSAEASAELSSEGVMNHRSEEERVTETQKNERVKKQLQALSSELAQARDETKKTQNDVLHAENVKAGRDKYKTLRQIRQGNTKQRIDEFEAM

The target in assay [1] is T1, Prom1-Flag (full-length human Prom1) (human) (UniProt O43490).
T1 sequence: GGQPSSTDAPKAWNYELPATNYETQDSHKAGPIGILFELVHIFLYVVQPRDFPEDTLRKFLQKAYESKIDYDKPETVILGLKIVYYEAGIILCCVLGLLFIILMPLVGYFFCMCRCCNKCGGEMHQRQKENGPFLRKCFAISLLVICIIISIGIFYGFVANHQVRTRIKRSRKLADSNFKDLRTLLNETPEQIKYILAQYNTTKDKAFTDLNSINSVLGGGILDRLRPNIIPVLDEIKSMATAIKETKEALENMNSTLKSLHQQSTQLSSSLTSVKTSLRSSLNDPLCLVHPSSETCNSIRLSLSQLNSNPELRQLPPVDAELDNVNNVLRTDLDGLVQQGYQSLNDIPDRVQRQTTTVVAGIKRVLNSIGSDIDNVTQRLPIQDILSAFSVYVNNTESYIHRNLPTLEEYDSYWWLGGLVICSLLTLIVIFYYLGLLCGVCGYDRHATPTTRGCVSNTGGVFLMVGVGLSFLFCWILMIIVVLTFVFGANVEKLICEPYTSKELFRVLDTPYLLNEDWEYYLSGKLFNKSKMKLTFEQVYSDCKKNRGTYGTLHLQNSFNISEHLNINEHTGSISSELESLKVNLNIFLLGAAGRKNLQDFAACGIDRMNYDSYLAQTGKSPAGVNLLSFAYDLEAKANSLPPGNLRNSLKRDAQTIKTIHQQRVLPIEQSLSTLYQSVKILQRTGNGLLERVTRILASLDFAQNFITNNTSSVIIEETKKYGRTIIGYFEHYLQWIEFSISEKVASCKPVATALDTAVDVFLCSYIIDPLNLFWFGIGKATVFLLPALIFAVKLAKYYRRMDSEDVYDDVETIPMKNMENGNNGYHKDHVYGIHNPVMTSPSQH
The assay can be described thus: co-IP.

Assay [2] addresses T2, Prominin-1 (Prom1), endogenous in primary mouse hepatocytes (mouse (endogenous in primary hepatocytes)) (UniProt O54990).
T2 sequence: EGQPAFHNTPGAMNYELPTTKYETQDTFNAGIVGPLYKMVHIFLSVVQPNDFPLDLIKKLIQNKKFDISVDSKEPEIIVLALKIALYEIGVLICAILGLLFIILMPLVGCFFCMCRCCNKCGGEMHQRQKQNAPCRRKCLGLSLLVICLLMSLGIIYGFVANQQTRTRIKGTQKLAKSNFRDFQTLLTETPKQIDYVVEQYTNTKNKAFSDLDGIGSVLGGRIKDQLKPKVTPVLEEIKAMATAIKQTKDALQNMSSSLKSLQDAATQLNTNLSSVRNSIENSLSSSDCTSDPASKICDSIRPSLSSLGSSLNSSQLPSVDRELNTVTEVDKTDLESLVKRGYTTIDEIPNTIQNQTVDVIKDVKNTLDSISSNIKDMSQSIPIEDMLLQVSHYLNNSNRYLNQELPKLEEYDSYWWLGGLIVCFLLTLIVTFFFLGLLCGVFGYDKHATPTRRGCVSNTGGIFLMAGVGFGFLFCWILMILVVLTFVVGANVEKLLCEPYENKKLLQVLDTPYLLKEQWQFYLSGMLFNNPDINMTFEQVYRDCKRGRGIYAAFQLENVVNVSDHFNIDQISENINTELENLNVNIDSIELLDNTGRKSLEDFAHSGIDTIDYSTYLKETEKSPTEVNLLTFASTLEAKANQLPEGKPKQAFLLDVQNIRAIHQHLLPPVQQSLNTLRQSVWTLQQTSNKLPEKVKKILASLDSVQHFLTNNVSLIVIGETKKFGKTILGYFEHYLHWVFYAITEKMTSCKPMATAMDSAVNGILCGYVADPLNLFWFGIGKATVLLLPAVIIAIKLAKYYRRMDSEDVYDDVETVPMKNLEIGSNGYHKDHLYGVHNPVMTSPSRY
The assay is described as follows: co-IP.

Assay [3] concerns the target T3, Prom1 expressed from adenovirus (Ad-Prom1) in Prom1-/- primary mouse hepatocytes (UniProt O43490).
T3 sequence: T1 sequence
The assay is described as follows: proximity ligation.

For assay [4], the target named is T2, Prominin-1 (Prom1), endogenous in primary mouse hepatocytes (mouse (endogenous in primary hepatocytes)). The assay is described as follows: proximity ligation.
Assay [5] concerns the target T1, Prom1-Flag (full-length human Prom1) (human). The assay can be described thus: co-IP. The source holds these as a separate data set.
The target in assay [6] is Myc-radixin (full-length human radixin) (human) (UniProt P35241). The assay is described as follows: co-IP.

Read-outs that look alike come from different tables or passages of the source. Results are given in words; binding and its absence hold for the method and conditions named. In cells and extracts the contact can be indirect. Some binding calls cover weakened binding; strength is not graded here. For some of these results: Tags and fused reporters may be left off the sequences shown.

“Myc-FERM (FERM domain of radixin, 1-310) (from UniProt P35241 1-310) (domain or fragment)”: the binding result in assay [1] is recorded as “binds”.
Take “Radixin, endogenous in primary mouse hepatocytes (from UniProt P26043 1-583)”: the binding result in assay [2], in assay [3] and in assay [4] was “binds” throughout.
In the case of “Myc-radixin (full-length human radixin) (from UniProt P35241 1-583)”, the binding result in assay [1] and in assay [5] was “binds” in each case.

B1: Prom1-Flag (full-length human Prom1) (protein, UniProt O43490 20-865)
chain: T1 sequence
Take B1: the binding result in assay [6] was “binds”.
